# In publication doi:10.1101/151316:
# By UniProt entry, the sequences of proteins in these tests, tags left out. Where a name states a change or a piece, a line headed by the entry shows the natural chain unless it says otherwise.
# UniProt P0C050, whole entry, looked up, stated change not applied: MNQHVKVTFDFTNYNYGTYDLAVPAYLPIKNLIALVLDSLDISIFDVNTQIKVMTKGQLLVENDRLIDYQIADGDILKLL
# Results are given in words; binding and its absence hold for the method and conditions named.
# Molecular target: EsaB (Staphylococcus aureus) (UniProt P0C050)
# Test: SEC
substance,measurement,value
EsaB (from UniProt P0C050 1-80),binding,no binding
